Experimental data published in patent publication US11229675B2, “Therapeutic peptides for excitatory neurotoxicity-related injuries” (Biocells (Beijing) Biotech Co., Ltd., priority 2016, dated 2022).
“Also recorded” adds a separate entry of the source.

Protein sequences, listed by entry. Tags and fused reporters are not part of them. Residues count along the entry.
UniProt P78352, 61-249: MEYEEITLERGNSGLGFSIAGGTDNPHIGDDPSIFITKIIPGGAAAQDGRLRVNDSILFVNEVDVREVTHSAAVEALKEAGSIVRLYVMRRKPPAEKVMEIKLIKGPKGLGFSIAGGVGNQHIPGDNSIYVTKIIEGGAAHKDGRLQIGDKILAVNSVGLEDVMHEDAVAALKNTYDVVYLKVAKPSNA

Target: PDZ1/2 domain (Homo sapiens, UniProt P78352)
Details: His beads + PDZ1/2 + peptide
Experimental: The mixture was centrifuged at 5000 g for 1 minute at 4° C., and the supernatant was discarded. 1 mg of PDZ1/2 protein was added to the mixture, and a buffer was added to reach the volume of 1 ml. The mixture was spun for binding for 1 hour at 4° C. The mixture was centrifuged at 5000 g for 1 minute at 4° C., and the supernatant was discarded. […] The mixture was spun for binding for 2 hours at 4° C. The mixture was centrifuged at 5000 g for 1 minute at 4° C., and the supernatant was discarded. […] 20 μl of MCAC-300 was added after washing.

SMILES: CC[C@H](C)[C@H](NC(=O)[C@H](CCC(=O)O)NC(=O)[C@@H](NC(=O)[C@H](CC(=O)O)NC(=O)[C@H](CC(C)C)NC(=O)[C@H](CC(C)C)NC(=O)[C@H](CCCCN)NC(=O)[C@H](CCC(=O)O)NC(=O)[C@H](Cc1ccc(O)cc1)NC(=O)[C@H](CCCNC(=N)N)NC(=O)[C@H](CCCNC(=N)N)NC(=O)[C@H](CCCNC(=N)N)NC(=O)[C@H](CCC(N)=O)NC(=O)[C@H](CCCNC(=N)N)NC(=O)[C@H](CCCNC(=N)N)NC(=O)[C@H](CCCCN)NC(=O)[C@H](CCCCN)NC(=O)[C@H](CCCNC(=N)N)NC(=O)CNC(=O)[C@@H](N)Cc1ccc(O)cc1)[C@@H](C)O)C(=O)O [P5]
- binding to PDZ1/2 domain (pull-down, SDS-PAGE of eluate): can bind to the PDZ1/2 domain; also recorded: capable of binding to PDZ1/2 domain
